No constants are given. Whether binding was seen depends on the method and setting. Binding seen in cells or lysates may run through a third protein. Some entries that bind do so weakly or less than the wild type.

Amino acid sequences for entries named in this document (tags omitted). Residues count along the entry.
UniProt Q32PJ8: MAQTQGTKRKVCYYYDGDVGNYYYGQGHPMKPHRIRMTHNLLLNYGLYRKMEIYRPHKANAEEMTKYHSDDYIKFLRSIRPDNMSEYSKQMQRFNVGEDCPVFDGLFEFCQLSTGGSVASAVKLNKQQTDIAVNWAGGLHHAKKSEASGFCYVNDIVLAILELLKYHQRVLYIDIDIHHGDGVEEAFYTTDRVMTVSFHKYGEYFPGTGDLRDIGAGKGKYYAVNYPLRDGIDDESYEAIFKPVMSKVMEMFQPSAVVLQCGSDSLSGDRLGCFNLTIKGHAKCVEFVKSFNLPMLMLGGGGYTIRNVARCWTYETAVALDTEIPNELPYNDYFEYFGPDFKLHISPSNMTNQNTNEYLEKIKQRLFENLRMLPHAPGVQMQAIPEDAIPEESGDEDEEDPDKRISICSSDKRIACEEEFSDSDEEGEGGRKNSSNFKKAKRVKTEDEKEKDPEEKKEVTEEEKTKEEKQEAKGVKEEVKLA
UniProt Q3MHL3, residues 2-425: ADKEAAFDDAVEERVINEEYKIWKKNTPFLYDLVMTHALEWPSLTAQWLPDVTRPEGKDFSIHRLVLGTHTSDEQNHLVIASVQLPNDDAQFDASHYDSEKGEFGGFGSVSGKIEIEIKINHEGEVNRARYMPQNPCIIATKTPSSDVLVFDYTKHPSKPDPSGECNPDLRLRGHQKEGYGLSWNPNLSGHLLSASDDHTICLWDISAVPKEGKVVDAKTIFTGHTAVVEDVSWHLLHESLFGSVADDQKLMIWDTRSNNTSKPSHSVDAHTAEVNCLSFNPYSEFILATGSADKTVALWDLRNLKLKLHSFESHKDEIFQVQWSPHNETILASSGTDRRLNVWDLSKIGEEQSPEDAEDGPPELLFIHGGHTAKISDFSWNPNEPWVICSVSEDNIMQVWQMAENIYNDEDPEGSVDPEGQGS

The target of the test is bovine HD1 (bovine thymus trapoxin binding proteins p46-p49) (bovine) (UniProt Q32PJ8). The test can be described thus: co-purification on the K-trap affinity matrix.

For the substance “bovine RbAp48 (bovine thymus protein of ~50 kD) (from UniProt Q3MHL3 2-425)”, the binding entry was “binds”.

Values taken from patent publication US20090221474A1.
